{"source": "PubChem BioAssay AID1508597 (Cure First, 2020)", "assay": "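Survival screen with siRNA in ovarian cancer cells derived from patients, with or without rucaparib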 (primary screen)", "cells": "human ovarian carcinoma lines grown from tumours: OCI-P5x (papillary serous) and OCI-C5x (clear cell)", "reagents": "siRNA pool against human genes, 1.25 pmol siRNA per well", "time to read-out": "72 h or 96 h, depending on the cell culture", "conditions": "rucaparib 20 µM (about IC30) or vehicle, present until read-out", "rucaparib or vehicle": "Rucaparib", "cell line": "OCI-C5x (clear cell)", "measured": "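ATP luminescence measured at 72 or 96 h according to the culture, then normalised and expressed as percent viability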", "direction": "viability, normalised: higher = more viable cells remaining", "rule for the call": "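Active when normalised viability falls below 80 percent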", "calls": "active = viability under 80%; inactive = viability 80% or more", "note": "This is an unselected part of the about 2,100 reagents, under one of the conditions tested. 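Calls flag viability under 80% in either arm, not effects specific to rucaparib; the reference for percent is not stated.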 A number with no mark means an inactive call. A reagent listed more than once was tested more than once; the source does not tell the runs apart. Not given: the 100% reference."}
The first 2 entries, to show the layout:
{"gene": "ZFP42", "technical replicate": "1", "viability, normalised (%)": "74 (active)"}
{"gene": "ZFP42", "technical replicate": "2", "viability, normalised (%)": "45.3 (active)"}

Results, repeating the preview:
{"gene": "ZFP42", "technical replicate": "1", "viability, normalised (%)": "74 (active)"}
{"gene": "ZFP42", "technical replicate": "2", "viability, normalised (%)": "45.3 (active)"}
{"gene": "ZFP42", "technical replicate": "3", "viability, normalised (%)": "52.3 (active)"}
{"gene": "ACTR5", "technical replicate": "1", "viability, normalised (%)": "68.2 (active)"}
{"gene": "ACTR5", "technical replicate": "2", "viability, normalised (%)": "59.2 (active)"}
{"gene": "ACTR5", "technical replicate": "3", "viability, normalised (%)": "54.1 (active)"}
{"gene": "PDE6B", "technical replicate": "1", "viability, normalised (%)": "53.2 (active)"}
{"gene": "PDE6B", "technical replicate": "2", "viability, normalised (%)": "39.6 (active)"}
{"gene": "PDE6B", "technical replicate": "3", "viability, normalised (%)": "40.1 (active)"}
{"gene": "STK16", "technical replicate": "1", "viability, normalised (%)": "67.8 (active)"}
{"gene": "STK16", "technical replicate": "2", "viability, normalised (%)": "61.1 (active)"}
{"gene": "STK16", "technical replicate": "3", "viability, normalised (%)": "73 (active)"}
{"gene": "INO80", "technical replicate": "1", "viability, normalised (%)": "42.7 (active)"}
{"gene": "INO80", "technical replicate": "2", "viability, normalised (%)": "52.2 (active)"}
{"gene": "INO80", "technical replicate": "3", "viability, normalised (%)": "43 (active)"}
{"gene": "IFIH1", "technical replicate": "1", "viability, normalised (%)": "56.7 (active)"}
{"gene": "IFIH1", "technical replicate": "2", "viability, normalised (%)": "41.2 (active)"}
{"gene": "IFIH1", "technical replicate": "3", "viability, normalised (%)": "42.6 (active)"}
{"gene": "PDIK1L", "technical replicate": "1", "viability, normalised (%)": "56.8 (active)"}
{"gene": "PDIK1L", "technical replicate": "2", "viability, normalised (%)": "61.5 (active)"}
{"gene": "PDIK1L", "technical replicate": "3", "viability, normalised (%)": "57 (active)"}
{"gene": "ERN1", "technical replicate": "1", "viability, normalised (%)": "47.5 (active)"}
{"gene": "ERN1", "technical replicate": "2", "viability, normalised (%)": "37.8 (active)"}
{"gene": "ERN1", "technical replicate": "3", "viability, normalised (%)": "44.8 (active)"}
{"gene": "WEE2", "technical replicate": "1", "viability, normalised (%)": "68.4 (active)"}
{"gene": "WEE2", "technical replicate": "1", "viability, normalised (%)": "51.3 (active)"}
{"gene": "WEE2", "technical replicate": "2", "viability, normalised (%)": "52.4 (active)"}
{"gene": "WEE2", "technical replicate": "2", "viability, normalised (%)": "48 (active)"}
{"gene": "WEE2", "technical replicate": "3", "viability, normalised (%)": "58.9 (active)"}
{"gene": "WEE2", "technical replicate": "3", "viability, normalised (%)": "66.3 (active)"}
{"gene": "HNF1A", "technical replicate": "1", "viability, normalised (%)": "33.1 (active)"}
{"gene": "HNF1A", "technical replicate": "2", "viability, normalised (%)": "19.2 (active)"}
{"gene": "HNF1A", "technical replicate": "3", "viability, normalised (%)": "39.3 (active)"}
